The data set has as its system DDC-expressing 3T3 cells. Put plainly: Co-culture differential proteome labeling (LC-MS/MS, species-specific peptides). It is filed as cell-based. Particulars: co-culture with lyr-MDA-MB-231 in DAP (L) and D-Lysine (H), after three passages; mouse-specific peptides.

Results on one molecule are retold here after patent publication US20150268248A1, “CELL SELECTIVE PROTEOME LABELING” (MEMORIAL SLOAN-KETTERING CANCER CENTER, priority 2012, published 2015).

Some results come without the dose or concentration used.

With `N[C@H](CCC[C@H](N)C(=O)O)C(=O)O` [DAP, meso-2,6-diaminopimelate], the “log 2 H/L” value is around −0.4 log 2 H/L.
